Test results reported in US20250296958A1, “GL[…] E[…]” (THE ADMINISTRATORS OF THE TULANE EDUCATIONAL FUND, priority 2022, published 2025).

Test system: male and female CD-1 mice
Assay: Tail flick (TF) antinociception test
Assay type: in vivo
Experimental: Tail Flick (TF): CD1 mice were used for this test. The latency to withdraw the tail from a heat source was automatically measured (IITC, Woodland Hills, CA). […] Percent Maximum Possible Effect (% MPE) was determined as [(latency-baseline latency)/(9-baseline latency)]*100.
Statistics/Data Analysis: Data were analyzed with […] PRISM software (GraphPad Software, San Diego CA).

CN1CC[C@]23c4c5ccc(O)c4O[C@H]2[C@@H](O)C=C[C@H]3[C@H]1C5 [morphine, reference compound]
rank order of effectiveness, TF AUC (main effects of drug): A2>A7>A1>morphine>ZH853
TF antinociception AUC (top dose (5.6 mg/kg), mean male and female): 10000
